From the supplement of paper PMC10849652
The list shows a part of the results.

Protein sequences, listed by entry. Tags and fused reporters are not part of them. Lines headed by an entry give the natural chain unless they say otherwise; changes in a name come on top.
UniProt Q9Y385: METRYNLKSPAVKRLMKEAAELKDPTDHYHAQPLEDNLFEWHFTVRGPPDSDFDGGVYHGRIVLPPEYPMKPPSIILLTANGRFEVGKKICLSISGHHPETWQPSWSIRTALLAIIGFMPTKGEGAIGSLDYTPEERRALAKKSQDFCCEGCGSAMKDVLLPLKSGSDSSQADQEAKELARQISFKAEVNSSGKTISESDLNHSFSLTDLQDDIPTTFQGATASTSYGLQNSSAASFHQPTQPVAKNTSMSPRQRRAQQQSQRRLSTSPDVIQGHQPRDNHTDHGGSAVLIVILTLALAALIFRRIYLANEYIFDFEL
UniProt P62256: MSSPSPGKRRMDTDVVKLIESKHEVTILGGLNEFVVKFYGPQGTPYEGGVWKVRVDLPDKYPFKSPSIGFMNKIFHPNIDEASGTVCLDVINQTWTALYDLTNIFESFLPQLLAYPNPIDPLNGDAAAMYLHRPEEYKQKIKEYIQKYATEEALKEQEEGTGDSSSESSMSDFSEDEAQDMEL
UniProt Q9BQE3, whole entry, looked up: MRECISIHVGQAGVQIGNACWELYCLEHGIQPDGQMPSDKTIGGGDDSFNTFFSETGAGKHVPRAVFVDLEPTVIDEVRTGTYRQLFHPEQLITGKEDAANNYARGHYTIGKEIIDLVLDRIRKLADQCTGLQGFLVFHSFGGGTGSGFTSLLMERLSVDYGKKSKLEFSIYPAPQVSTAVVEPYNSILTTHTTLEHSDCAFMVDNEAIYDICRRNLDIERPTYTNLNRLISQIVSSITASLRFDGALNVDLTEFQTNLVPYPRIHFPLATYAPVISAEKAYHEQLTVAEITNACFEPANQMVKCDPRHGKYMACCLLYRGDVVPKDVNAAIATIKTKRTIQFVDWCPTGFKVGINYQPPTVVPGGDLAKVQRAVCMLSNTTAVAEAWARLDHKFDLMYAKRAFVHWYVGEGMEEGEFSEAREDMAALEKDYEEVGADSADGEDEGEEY
UniProt P63279, whole entry, looked up: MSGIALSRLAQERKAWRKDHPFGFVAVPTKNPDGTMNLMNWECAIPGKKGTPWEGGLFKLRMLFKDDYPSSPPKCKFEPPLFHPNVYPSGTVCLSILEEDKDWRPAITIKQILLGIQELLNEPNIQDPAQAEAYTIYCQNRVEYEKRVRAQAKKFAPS
UniProt Q9BTX7: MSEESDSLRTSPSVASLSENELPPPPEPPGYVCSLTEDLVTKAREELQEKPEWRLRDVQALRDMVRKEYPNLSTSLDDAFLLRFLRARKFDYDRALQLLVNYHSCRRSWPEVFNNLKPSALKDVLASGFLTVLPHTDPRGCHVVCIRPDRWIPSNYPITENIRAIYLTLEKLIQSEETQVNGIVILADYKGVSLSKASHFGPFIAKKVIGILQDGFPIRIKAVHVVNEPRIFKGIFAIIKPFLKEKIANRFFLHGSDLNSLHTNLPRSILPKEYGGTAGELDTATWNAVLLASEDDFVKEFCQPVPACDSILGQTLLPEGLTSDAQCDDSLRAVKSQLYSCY
UniProt Q16881, whole entry, looked up: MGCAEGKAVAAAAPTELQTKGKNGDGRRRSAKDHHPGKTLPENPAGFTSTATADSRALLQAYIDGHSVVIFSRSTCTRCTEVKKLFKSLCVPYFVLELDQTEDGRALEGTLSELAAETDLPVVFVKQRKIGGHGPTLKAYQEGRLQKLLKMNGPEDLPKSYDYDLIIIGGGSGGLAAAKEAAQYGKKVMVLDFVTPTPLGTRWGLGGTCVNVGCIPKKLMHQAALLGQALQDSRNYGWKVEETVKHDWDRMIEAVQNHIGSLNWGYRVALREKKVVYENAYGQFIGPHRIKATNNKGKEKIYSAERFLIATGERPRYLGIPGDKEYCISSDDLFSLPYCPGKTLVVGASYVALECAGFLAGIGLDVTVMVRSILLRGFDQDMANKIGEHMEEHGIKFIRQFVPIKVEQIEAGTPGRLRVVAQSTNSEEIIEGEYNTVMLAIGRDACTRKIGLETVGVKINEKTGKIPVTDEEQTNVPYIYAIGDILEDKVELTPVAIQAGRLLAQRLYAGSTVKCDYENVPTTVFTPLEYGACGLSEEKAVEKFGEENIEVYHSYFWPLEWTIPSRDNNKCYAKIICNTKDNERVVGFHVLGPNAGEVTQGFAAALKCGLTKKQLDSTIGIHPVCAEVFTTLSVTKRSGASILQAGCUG
UniProt Q3KQV9: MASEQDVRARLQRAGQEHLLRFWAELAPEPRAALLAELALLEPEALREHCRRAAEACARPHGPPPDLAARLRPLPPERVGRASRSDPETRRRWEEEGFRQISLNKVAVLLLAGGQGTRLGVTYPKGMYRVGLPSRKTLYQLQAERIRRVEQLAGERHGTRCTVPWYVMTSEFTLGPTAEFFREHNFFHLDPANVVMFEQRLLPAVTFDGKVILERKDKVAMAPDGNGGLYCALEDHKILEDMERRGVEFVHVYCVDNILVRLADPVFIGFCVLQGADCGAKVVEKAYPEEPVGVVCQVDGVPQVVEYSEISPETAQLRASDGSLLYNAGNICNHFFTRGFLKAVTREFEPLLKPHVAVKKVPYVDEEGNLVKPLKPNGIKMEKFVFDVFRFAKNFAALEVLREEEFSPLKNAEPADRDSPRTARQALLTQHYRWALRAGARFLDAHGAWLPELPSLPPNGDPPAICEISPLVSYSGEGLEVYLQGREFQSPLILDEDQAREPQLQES
UniProt Q99816: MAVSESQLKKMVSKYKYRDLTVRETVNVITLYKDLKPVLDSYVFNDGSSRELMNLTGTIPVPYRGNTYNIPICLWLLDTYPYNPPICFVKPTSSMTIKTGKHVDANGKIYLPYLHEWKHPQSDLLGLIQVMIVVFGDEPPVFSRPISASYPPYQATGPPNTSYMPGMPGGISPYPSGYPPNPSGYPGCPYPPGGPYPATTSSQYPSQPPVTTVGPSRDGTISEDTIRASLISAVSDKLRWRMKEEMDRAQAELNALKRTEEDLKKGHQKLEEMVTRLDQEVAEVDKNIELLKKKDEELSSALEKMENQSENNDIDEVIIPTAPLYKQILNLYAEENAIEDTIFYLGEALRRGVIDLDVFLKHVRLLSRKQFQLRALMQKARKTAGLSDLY
UniProt P62253: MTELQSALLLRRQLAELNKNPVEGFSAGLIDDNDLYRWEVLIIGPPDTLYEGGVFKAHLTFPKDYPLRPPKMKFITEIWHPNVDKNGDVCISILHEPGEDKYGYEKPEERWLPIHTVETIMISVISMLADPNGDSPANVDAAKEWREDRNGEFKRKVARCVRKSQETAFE
UniProt Q9NV66: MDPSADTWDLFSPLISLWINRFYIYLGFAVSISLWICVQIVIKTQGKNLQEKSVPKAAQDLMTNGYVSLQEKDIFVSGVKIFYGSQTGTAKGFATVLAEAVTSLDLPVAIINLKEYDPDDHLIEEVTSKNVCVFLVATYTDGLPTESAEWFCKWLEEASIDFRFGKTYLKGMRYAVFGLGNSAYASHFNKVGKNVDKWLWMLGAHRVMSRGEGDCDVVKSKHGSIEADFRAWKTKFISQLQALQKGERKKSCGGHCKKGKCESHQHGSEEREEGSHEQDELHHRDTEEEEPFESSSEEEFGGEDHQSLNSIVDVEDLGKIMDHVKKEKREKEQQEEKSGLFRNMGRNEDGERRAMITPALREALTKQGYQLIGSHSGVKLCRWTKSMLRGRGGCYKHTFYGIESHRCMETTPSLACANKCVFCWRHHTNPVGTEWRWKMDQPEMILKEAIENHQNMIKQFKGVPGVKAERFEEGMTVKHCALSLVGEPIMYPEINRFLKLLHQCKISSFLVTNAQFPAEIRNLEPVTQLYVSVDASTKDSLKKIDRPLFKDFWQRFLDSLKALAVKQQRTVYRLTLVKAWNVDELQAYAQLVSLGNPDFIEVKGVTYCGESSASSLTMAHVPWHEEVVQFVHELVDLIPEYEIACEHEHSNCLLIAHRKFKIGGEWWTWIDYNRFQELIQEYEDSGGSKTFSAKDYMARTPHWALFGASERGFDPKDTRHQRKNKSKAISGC
UniProt Q99757: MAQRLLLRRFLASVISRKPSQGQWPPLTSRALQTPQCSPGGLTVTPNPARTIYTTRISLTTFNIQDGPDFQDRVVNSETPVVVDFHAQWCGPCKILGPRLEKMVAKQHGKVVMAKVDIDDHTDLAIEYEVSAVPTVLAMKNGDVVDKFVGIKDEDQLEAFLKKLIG
UniProt P22314: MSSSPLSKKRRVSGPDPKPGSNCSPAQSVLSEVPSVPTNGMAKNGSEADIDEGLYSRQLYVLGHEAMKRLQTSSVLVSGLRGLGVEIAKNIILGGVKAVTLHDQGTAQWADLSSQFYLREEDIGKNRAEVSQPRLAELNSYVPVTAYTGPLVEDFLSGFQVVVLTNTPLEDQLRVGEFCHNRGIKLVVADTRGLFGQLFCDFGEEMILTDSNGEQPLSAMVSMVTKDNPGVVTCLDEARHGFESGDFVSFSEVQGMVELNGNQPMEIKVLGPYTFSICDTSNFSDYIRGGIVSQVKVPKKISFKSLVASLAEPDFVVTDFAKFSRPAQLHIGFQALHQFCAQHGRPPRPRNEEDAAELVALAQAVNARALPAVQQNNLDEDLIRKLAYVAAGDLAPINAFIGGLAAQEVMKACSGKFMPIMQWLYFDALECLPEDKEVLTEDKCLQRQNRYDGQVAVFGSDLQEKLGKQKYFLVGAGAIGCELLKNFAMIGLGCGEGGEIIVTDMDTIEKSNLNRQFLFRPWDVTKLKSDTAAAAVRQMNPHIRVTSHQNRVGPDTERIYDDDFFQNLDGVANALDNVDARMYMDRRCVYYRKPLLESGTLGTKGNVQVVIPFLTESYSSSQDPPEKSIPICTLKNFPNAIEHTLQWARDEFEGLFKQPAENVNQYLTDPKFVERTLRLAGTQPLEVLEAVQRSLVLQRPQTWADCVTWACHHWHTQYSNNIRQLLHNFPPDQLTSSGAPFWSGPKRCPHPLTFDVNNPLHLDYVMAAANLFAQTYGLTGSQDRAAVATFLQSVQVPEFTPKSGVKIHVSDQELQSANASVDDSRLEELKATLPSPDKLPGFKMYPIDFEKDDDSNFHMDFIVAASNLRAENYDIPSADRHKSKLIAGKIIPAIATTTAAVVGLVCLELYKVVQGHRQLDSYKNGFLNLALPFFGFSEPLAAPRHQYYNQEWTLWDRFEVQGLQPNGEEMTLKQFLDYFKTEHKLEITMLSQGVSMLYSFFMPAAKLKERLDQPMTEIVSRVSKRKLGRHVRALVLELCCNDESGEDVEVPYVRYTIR
UniProt Q13509, whole entry, looked up: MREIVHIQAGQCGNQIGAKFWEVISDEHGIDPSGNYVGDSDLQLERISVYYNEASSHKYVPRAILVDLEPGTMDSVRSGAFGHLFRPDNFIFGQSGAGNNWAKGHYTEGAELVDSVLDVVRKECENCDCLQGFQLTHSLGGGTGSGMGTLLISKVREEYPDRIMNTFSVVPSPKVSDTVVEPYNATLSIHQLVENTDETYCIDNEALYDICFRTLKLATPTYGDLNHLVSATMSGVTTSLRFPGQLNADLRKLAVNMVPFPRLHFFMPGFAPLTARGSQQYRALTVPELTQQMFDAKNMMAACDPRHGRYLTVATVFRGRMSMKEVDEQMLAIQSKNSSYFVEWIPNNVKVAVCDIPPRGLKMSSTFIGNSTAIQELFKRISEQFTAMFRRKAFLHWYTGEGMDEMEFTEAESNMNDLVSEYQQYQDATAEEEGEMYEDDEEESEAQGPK
UniProt Q9NUQ3: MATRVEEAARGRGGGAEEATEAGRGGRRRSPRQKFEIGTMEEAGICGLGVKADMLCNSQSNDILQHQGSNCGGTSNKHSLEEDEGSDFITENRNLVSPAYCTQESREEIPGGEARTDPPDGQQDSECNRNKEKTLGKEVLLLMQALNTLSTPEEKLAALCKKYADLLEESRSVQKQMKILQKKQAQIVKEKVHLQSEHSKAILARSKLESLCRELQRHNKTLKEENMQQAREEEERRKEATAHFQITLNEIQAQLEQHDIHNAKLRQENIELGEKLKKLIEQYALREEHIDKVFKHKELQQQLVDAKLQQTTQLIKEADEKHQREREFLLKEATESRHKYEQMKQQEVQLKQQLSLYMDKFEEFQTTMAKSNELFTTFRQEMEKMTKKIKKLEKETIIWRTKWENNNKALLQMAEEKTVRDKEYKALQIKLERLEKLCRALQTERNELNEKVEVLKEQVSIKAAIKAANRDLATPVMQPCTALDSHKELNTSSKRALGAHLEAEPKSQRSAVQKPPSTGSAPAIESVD
UniProt P26368, whole entry, looked up: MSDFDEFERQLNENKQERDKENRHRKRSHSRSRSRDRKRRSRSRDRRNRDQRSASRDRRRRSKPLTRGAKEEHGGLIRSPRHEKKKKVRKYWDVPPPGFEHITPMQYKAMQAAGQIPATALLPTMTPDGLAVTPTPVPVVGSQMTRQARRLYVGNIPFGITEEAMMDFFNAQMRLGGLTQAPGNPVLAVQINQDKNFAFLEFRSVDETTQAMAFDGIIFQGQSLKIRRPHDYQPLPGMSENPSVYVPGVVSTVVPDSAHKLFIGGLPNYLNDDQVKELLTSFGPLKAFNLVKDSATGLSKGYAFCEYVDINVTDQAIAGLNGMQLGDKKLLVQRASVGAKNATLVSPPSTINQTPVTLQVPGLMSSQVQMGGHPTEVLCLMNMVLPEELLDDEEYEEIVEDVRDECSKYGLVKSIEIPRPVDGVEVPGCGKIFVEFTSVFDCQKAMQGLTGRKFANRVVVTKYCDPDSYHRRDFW

Each target was assayed with CCN(CCCOc1ccc2c(Nc3cc(CC(=O)Nc4cccc(F)c4)[nH]n3)ncnc2c1)CCOP(=O)(O)O [barasertib] (assay: log2 fold change, soluble protein after heating vs DMSO (PISA); higher = thermal stabilisation; K562 cells, 10 uM, 30 min; active = over 0.2 and 3.5 SD of the protein, either way, in both replicates (recomputed)).
How it was run: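 K562 cells (2×10^6 cells/mL) were treated with 10 μM compound for 30 min, and aliquots were heated for 3 min over 48°C-58°C. Pooled aliquots were extracted in PBS with 0.5% NP-40 at 4°C, and the supernatant after 21,000xg for 90 min was measured by TMTpro 16plex LC-MS/MS with channel sums equalised. Reported thermal stability, relative to control samples and from duplicates, is a log2 fold change.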

log2 fold change, inactive:
TSPAN14 (UniProt Q8NG11) -0.026, UBE2J1 (UniProt Q9Y385) -0.047, UBE2H (UniProt P62256) 0.063, TUBA1C (UniProt Q9BQE3) -0.013, UBE2I (UniProt P63279) 0.022, UBAP2L isoform 1 (UniProt Q14157) -0.011, TTPAL (UniProt Q9BTX7) 0.052, TXNRD1 (UniProt Q16881) 0.024, TXNL1 (UniProt O43396) 0.045, TTC27 (UniProt Q6P3X3) 0.069, TTI2 (UniProt Q6NXR4) -0.028, UAP1L1 (UniProt Q3KQV9) 0.006, TXNIP (UniProt Q9H3M7) 0.033, UBAP1 isoform 4 (UniProt Q9NZ09) 0.033, UBAP2L isoform 5 (UniProt Q14157) 0.011, TSG101 (UniProt Q99816) 0.046, TUBA1B (UniProt P68363) -0.011, UBA52 (UniProt P62987) 0.044, UBE2G1 (UniProt P62253) 0.033, TYW1 (UniProt Q9NV66) 0.045, TXN2 (UniProt Q99757) 0.009, UBA1 (UniProt P22314) 0.138, UBA6 0.07, TUBB3 (UniProt Q13509) -0.002, TSFM (UniProt P43897) 0.075, TWF2 (UniProt Q6IBS0) 0.029, TXLNG (UniProt Q9NUQ3) 0.03, TTMP isoform 3 (UniProt Q5BVD1) 0.069, TTN isoform 12 (UniProt Q8WZ42) 0.08, U2AF2 (UniProt P26368) -0.015, TSR2 (UniProt Q969E8) -0.006, TUFM (UniProt P49411) 0.055
